From patent US6476076B1 (priority 1999, dated 2002)
At least one compound was matched to its structure with a doubt left.

Test system: rat eye (eye-wiping response)
Settings: in vivo

C=C(C)[C@]12C[C@@H](C)[C@@]34O[C@](Cc5ccccc5)(O[C@@H]1[C@@H]3C=C(COC(=O)Cc1ccc(O)c(OC)c1)C[C@]1(O)C(=O)C(C)=C[C@@H]41)O2 [RTX, Resiniferatoxin, reference compound]
response to 0.001% CAP challenge 6 h posttreatment (in words): attenuated eye-wiping response
